Source: patent US20220098319A1 (SHANGHAI PHARMAEXPLORER, published 2022)
Results are given in words; binding and its absence hold for the method and conditions named. Some entries that bind do so weakly or less than the wild type.

B1: mab020xhIgG1TM (clone 24D6B4), mouse-human chimeric anti-CD73 antibody (antibody, V domains shown)
VH: EVQLQQSGPELVKPGASVKIPCKASGYTFTDYNMDWVKQRHGKSLEWIGDINPNNGGTVYNQKFKGKATLTVDKSSNTAYMELRSLTSEDTAVYYCARISGTGYWYFDVWGTGTTVTVSS
VL: DIQMTQSPASLSVSVGETVTITCRASENIYSNLAWYQQKQGKSPQLLVYGATNLADGVPSRFSGSDSGTQYSLKINSLQSEDFGSYYCQHFWGTPWTFGGGTKLEIK
notes: also called mAb020 chimeric antibody
B2: mab030xhIgG1TM (clone 42A5A7), mouse-human chimeric anti-CD73 antibody (antibody, V domains shown)
VH: DIQLQESGPGLVKPSQSLSLTCSVTGYSITSRYYWNWIRQFPGNKLEWMGYITYDDNNNYNPSLKNRISITRDTSKNQFFLKLNSVTPEDTATYYCARGGWDPFLYWGQGTLVTVSA
VL: DIQMTQSPASLSASVGETVTITCRASDNIYSYLAWYQQKQGKSLQLLVDSAKNLGEGVPSRFSGSGSGTQFYLKINSLQPEDFGVYYCQHYYGTPFTFGGGTKLELK
notes: also called mAb030 chimeric antibody
B3: mab032xhIgG1TM (clone 56F12H8), mouse-human chimeric anti-CD73 antibody (antibody, V domains shown)
VH: EVQLVESGGDLVKPGGSLKLSCAASGFTFSTHGMSWVRQTPDKRLEWVAIISSDRSDIDYTDNVKGRFTISRDNGKNTLYLQMSSLKSEDTAIYHCARHRGYDGFYYAMDYWGQGTSVTVSS
VL: DILMTQSPSSLTVTAGEKVTMSCRSSQSLLNSGNQKNYLTWYQQRPGRPPKLLIYWASTRISGVPDRFAGSGSGTDFTLTISIVQAEDLAVYYCQNDYSYPLTFGSGTKLELR
notes: also called mAb032 chimeric antibody
B4: mab034xhIgG1TM (clone 60G1C8), mouse-human chimeric anti-CD73 antibody (antibody, V domains shown)
VH: DVQLQESGPGLVKPSQSLSLTCSVTGYSITSRYYWNWIRQFPGNKLEWMGYMTYDGTNNYNPSLTNRISITRDTSKNQFFLKLNSVTAEDTATYFCARGGWDPFDYWGQGTTLTVSS
VL: DIQMTQSPAALSASVGETVTITCRASDNIYSYLAWYQQKQGKCPQLLVKNAKTLAEGVPSRFSGSGSGTQFSLRINSLQPDDFGTYYCQHYYGTPLTFGAGTKLELK
notes: also called mAb034 chimeric antibody
B5: mab036xhIgG1TM (clone 66H6C12), mouse-human chimeric anti-CD73 antibody (antibody, V domains shown)
VH: QVQLQQSGAEVVKPGASVKISCKASGYVFSSYWINWVKQRPGKGLEWIGKIFPGNGDTDYNGNFKGKATLTADKSSSTAYMQLSSLTSEDSAVYFCAGFADWGQGTLVTVSA
VL: DIQMTQSPSSLSASLGERVSLTCRASQDIGERLIWLQQEPDGTFKRLIYATSSLDSGVPKRFSGSSSGSDYSLTISRLESEDFVDYYCLQYASSPYTFGGGTKLEIK
notes: also called mAb036 chimeric antibody
B6: mab038xhIgG1TM (clone 69C9E12), mouse-human chimeric anti-CD73 antibody (antibody, V domains shown)
VH: QVQLQQPGTELVNPGASVKLSCKASGYTFTSYWMHWVKQRPGQGLEWIGNINPSNGGTHYNEKFNNKATLTVDKSSSTAYMQLSSLTSEDSAVFYCARGDYAYDWYFTVWGTGTTVTVSS
VL: DIVLTQSPASLAVSLGQRAIISCKASQSVSFAGTGLMHWYQQKPGQQPKLLIYRVSNLEAGIPTRFSGSGSRTDFTLNIHPVEEDDAATYYCQQNREFPWTFGGGTKLEIK
notes: also called mAb038 chimeric antibody
B7: mab041xhIgG1TM (clone 71E10B3), mouse-human chimeric anti-CD73 antibody (antibody, V domains shown)
VH: QVQLQQPGTELVKPGASVKLSCKASGYTFTSYWMHWVKQRPGQGLEWIGNINPSNGGTNYNQKFKSKATLTVDKSSNTASMQLSSLTSEDSAVYYCARGDYGYDWYLDVWGTGTTVTVSS
VL: DIVLTQSPASLAVSLGQRAIISCKASQSVSFAGPSLMHWYQQKPGQQPKLLIYRTSNLEAGVPTRFSGSGSGTDFTLNIHPVEEDDAATYYCQQNREFPWTFGGGTKLEIK
notes: also called mAb041 chimeric antibody
B8: mab042xhIgG1TM (clone 77B9A3), mouse-human chimeric anti-CD73 antibody (antibody, V domains shown)
VH: QVQLQQSGAGLVKPGASVKLSCKASGYTFTNYWMHWVKQRPGQGLEWIGMIHPNSGSTNNNEKFKNKATLTVDKSSNTAYMQLSSLTSEDSAVYYCARFFFGGYPHYYALDYWGQGTSVTVSS
VL: DIVMTQSQKFMSTTVGDRVSITCKASQNVGTAVAWYQQKPGQSPKLLIYSASDRYTGVPDRLTGSGSGTDFTLTISNVQSEDLADYFCQQYSSFPLFTFGSGTKLVIQ
notes: also called mAb042 chimeric antibody
B9: mab044xhIgG1TM (clone 80H7D6), mouse-human chimeric anti-CD73 antibody (antibody, V domains shown)
VH: EVKLVESGGGLVQPGGSLRLSCAASGFTFTDYYMSWVRQPPGKALEWLGFIRNKADGSTTEYSASVKGRFTISRDNSQSILYLQMNALRPEDSATYYCTRSPIYFDNWYFDVWGTGTTVTVSS
VL: DIVMSQSPSSLAVSVGEKVTMTCKSSQSLLYSNNQKNYLAWYQQKPGQSPKLLIYWASTRESGVPDRFTGSGSGTDFTLTLSSVKAEDLAVYYCQQYYSYPFTFGSGTKLEIK
notes: also called mAb044 chimeric antibody
B10: mab065xhIgG1TM (clone 125A4E10), mouse-human chimeric anti-CD73 antibody (antibody, V domains shown)
VH: EVQLQQSGPELVKPGASVKISCKASGYTFTDYYMNWVKQSHGKSLEWIGNINPNNGDTNYNQKFKGKATLTVDKSSSTASMELRSLTSEDSAVYYCANSGYYYFDYWGQGTTLTVSS
VL: DIVMTQSPSSLTVTAGEKVTMSCKSSQSLLNSGNQKNYLTWYQQKPGQPPKVLIYWASTRESGVPDRFTGSGSGTDFTLTISSVQAEDLAVYYCQNDYSYPPTFGGGTNLEIK
notes: also called mAb065 chimeric antibody
B11: mAb020 (clone 24D6B4), murine anti-CD73 antibody (antibody, V domains shown)
VH: EVQLQQSGPELVKPGASVKIPCKASGYTFTDYNMDWVKQRHGKSLEWIGDINPNNGGTVYNQKFKGKATLTVDKSSNTAYMELRSLTSEDTAVYYCARISGTGYWYFDVWGTGTTVTVSS
VL: DIQMTQSPASLSVSVGETVTITCRASENIYSNLAWYQQKQGKSPQLLVYGATNLADGVPSRFSGSDSGTQYSLKINSLQSEDFGSYYCQHFWGTPWTFGGGTKLEIK
notes: Purified from hybridoma supernatant
B12: mAb030 (clone 42A5A7), murine anti-CD73 antibody (antibody, V domains shown)
VH: DIQLQESGPGLVKPSQSLSLTCSVTGYSITSRYYWNWIRQFPGNKLEWMGYITYDDNNNYNPSLKNRISITRDTSKNQFFLKLNSVTPEDTATYYCARGGWDPFLYWGQGTLVTVSA
VL: DIQMTQSPASLSASVGETVTITCRASDNIYSYLAWYQQKQGKSLQLLVDSAKNLGEGVPSRFSGSGSGTQFYLKINSLQPEDFGVYYCQHYYGTPFTFGGGTKLELK
notes: Purified from hybridoma supernatant; also called antibody 030
B13: mAb032 (clone 56F12H8), murine anti-CD73 antibody (antibody, V domains shown)
VH: EVQLVESGGDLVKPGGSLKLSCAASGFTFSTHGMSWVRQTPDKRLEWVAIISSDRSDIDYTDNVKGRFTISRDNGKNTLYLQMSSLKSEDTAIYHCARHRGYDGFYYAMDYWGQGTSVTVSS
VL: DILMTQSPSSLTVTAGEKVTMSCRSSQSLLNSGNQKNYLTWYQQRPGRPPKLLIYWASTRISGVPDRFAGSGSGTDFTLTISIVQAEDLAVYYCQNDYSYPLTFGSGTKLELR
notes: as for B11
B14: mAb034 (clone 60G1C8), murine anti-CD73 antibody (antibody, V domains shown)
VH: DVQLQESGPGLVKPSQSLSLTCSVTGYSITSRYYWNWIRQFPGNKLEWMGYMTYDGTNNYNPSLTNRISITRDTSKNQFFLKLNSVTAEDTATYFCARGGWDPFDYWGQGTTLTVSS
VL: DIQMTQSPAALSASVGETVTITCRASDNIYSYLAWYQQKQGKCPQLLVKNAKTLAEGVPSRFSGSGSGTQFSLRINSLQPDDFGTYYCQHYYGTPLTFGAGTKLELK
notes: as for B11
B15: mAb036 (clone 66H6C12), murine anti-CD73 antibody (antibody, V domains shown)
VH: QVQLQQSGAEVVKPGASVKISCKASGYVFSSYWINWVKQRPGKGLEWIGKIFPGNGDTDYNGNFKGKATLTADKSSSTAYMQLSSLTSEDSAVYFCAGFADWGQGTLVTVSA
VL: DIQMTQSPSSLSASLGERVSLTCRASQDIGERLIWLQQEPDGTFKRLIYATSSLDSGVPKRFSGSSSGSDYSLTISRLESEDFVDYYCLQYASSPYTFGGGTKLEIK
notes: as for B11
B16: mAb038 (clone 69C9E12), murine anti-CD73 antibody (antibody, V domains shown)
VH: QVQLQQPGTELVNPGASVKLSCKASGYTFTSYWMHWVKQRPGQGLEWIGNINPSNGGTHYNEKFNNKATLTVDKSSSTAYMQLSSLTSEDSAVFYCARGDYAYDWYFTVWGTGTTVTVSS
VL: DIVLTQSPASLAVSLGQRAIISCKASQSVSFAGTGLMHWYQQKPGQQPKLLIYRVSNLEAGIPTRFSGSGSRTDFTLNIHPVEEDDAATYYCQQNREFPWTFGGGTKLEIK
notes: as for B11
B17: mAb041 (clone 71E10B3), murine anti-CD73 antibody (antibody, V domains shown)
VH: QVQLQQPGTELVKPGASVKLSCKASGYTFTSYWMHWVKQRPGQGLEWIGNINPSNGGTNYNQKFKSKATLTVDKSSNTASMQLSSLTSEDSAVYYCARGDYGYDWYLDVWGTGTTVTVSS
VL: DIVLTQSPASLAVSLGQRAIISCKASQSVSFAGPSLMHWYQQKPGQQPKLLIYRTSNLEAGVPTRFSGSGSGTDFTLNIHPVEEDDAATYYCQQNREFPWTFGGGTKLEIK
notes: as for B11
B18: mAb042 (clone 77B9A3), murine anti-CD73 antibody (antibody, V domains shown)
VH: QVQLQQSGAGLVKPGASVKLSCKASGYTFTNYWMHWVKQRPGQGLEWIGMIHPNSGSTNNNEKFKNKATLTVDKSSNTAYMQLSSLTSEDSAVYYCARFFFGGYPHYYALDYWGQGTSVTVSS
VL: DIVMTQSQKFMSTTVGDRVSITCKASQNVGTAVAWYQQKPGQSPKLLIYSASDRYTGVPDRLTGSGSGTDFTLTISNVQSEDLADYFCQQYSSFPLFTFGSGTKLVIQ
notes: as for B11
B19: mAb044 (clone 80H7D6), murine anti-CD73 antibody (antibody, V domains shown)
VH: EVKLVESGGGLVQPGGSLRLSCAASGFTFTDYYMSWVRQPPGKALEWLGFIRNKADGSTTEYSASVKGRFTISRDNSQSILYLQMNALRPEDSATYYCTRSPIYFDNWYFDVWGTGTTVTVSS
VL: DIVMSQSPSSLAVSVGEKVTMTCKSSQSLLYSNNQKNYLAWYQQKPGQSPKLLIYWASTRESGVPDRFTGSGSGTDFTLTLSSVKAEDLAVYYCQQYYSYPFTFGSGTKLEIK
notes: as for B11
B20: mAb065 (clone 125A4E10), murine anti-CD73 antibody (antibody, V domains shown)
VH: EVQLQQSGPELVKPGASVKISCKASGYTFTDYYMNWVKQSHGKSLEWIGNINPNNGDTNYNQKFKGKATLTVDKSSSTASMELRSLTSEDSAVYYCANSGYYYFDYWGQGTTLTVSS
VL: DIVMTQSPSSLTVTAGEKVTMSCKSSQSLLNSGNQKNYLTWYQQKPGQPPKVLIYWASTRESGVPDRFTGSGSGTDFTLTISSVQAEDLAVYYCQNDYSYPPTFGGGTNLEIK
notes: as for B11

What was measured:
[1] = target: cynomolgus monkey CD73 (on transfected CHOK1 cells) (cynomolgus monkey); assay: FACS on CHOK1-cCD73 cells, chimeric antibody
[2] = target: cynomolgus monkey CD73 (on transfected CHOK1 cells) (cynomolgus monkey); assay: FACS on CHOK1-cCD73 cells

| Binder | binding [1] | binding [2] |
| --- | --- | --- |
| B1 | binds |  |
| B2 | binds |  |
| B3 | binds |  |
| B4 | binds |  |
| B5 | binds |  |
| B6 | binds |  |
| B7 | binds |  |
| B8 | binds |  |
| B9 | binds |  |
| B10 | binds |  |
| B11 |  | binds |
| B12 |  | binds |
| B13 |  | binds |
| B14 |  | binds |
| B15 |  | binds |
| B16 |  | binds |
| B17 |  | binds |
| B18 |  | binds |
| B19 |  | binds |
| B20 |  | binds |
